These are yes or no findings as the source states them, for the method shown. Some entries that bind do so weakly or less than the wild type. Tags and fused reporters may be left off the sequences shown.
Biological target: T1, LHA1 expressed in yeast, phosphorylated at the penultimate threonine (tomato (Solanum lycopersicum)) (UniProt P22180)
T1 sequence (chain, phospho-threonine at the penultimate residue of the regulatory C-terminus (T955)): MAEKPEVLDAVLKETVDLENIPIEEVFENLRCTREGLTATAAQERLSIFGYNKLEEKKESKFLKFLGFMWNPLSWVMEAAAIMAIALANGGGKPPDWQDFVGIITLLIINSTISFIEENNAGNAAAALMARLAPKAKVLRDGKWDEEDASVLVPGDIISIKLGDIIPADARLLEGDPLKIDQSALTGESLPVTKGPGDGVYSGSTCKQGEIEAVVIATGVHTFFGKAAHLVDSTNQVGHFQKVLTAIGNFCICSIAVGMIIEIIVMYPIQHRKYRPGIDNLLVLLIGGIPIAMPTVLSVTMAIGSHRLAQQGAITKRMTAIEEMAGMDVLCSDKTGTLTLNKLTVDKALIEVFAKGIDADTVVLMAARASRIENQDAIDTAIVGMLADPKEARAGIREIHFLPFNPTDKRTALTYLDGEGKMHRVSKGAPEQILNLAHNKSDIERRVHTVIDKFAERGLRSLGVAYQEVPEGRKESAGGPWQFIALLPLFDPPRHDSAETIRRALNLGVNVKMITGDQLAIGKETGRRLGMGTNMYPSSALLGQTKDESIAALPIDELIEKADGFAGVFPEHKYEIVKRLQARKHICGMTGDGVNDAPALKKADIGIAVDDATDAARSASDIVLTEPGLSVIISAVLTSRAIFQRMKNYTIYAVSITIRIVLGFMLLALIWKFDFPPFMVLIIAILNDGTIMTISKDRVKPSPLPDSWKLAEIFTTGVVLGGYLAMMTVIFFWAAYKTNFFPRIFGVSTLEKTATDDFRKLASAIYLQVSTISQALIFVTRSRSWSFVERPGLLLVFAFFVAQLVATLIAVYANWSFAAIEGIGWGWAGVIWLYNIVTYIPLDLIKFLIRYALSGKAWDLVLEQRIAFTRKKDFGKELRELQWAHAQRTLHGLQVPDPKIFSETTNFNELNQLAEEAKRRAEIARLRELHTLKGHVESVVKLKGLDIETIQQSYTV
Assay: far-Western, overlay or dot blot; yeast microsomal fractions (100 µg) separated by SDS-PAGE and blotted to nitrocellulose; overlay with 40 µg RGS-His 14-3-3 (GF14ø) and 5 µM fusicoccin in 10 ml far-western buffer (20 mM MES, 130 mM NaCl, 10 mM MgSO4, 100 µM CaCl2, pH 6.5), 1 h, room temperature; detected with anti-RGS-6x-His; only the binder purified

binding: binds
B1: RGS-His epitope tagged 14-3-3 (GF14ø) protein (protein, UniProt P46077 1-267)
chain: MAAPPASSSAREEFVYLAKLAEQAERYEEMVEFMEKVAEAVDKDELTVEERNLLSVAYKNVIGARRASWRIISSIEQKEESRGNDDHVTTIRDYRSKIESELSKICDGILKLLDTRLVPASANGDSKVFYLKMKGDYHRYLAEFKTGQERKDAAEHTLTAYKAAQDIANAELAPTHPIRLGLALNFSVFYYEILNSPDRACNLAKQAFDEAIAELDTLGEESYKDSTLIMQLLRDNLTLWTSDMQDESPEEIKEAAAPKPAEEQKEI

— publication PMC12283378
